In US20060183700:
Where a chain is given by its changes, count along the chain named. For some assays here: A weaker result is weaker than the reference pair of the same experiment. For some assays here: Tags and fusion partners may be left off the protein sequences shown. For some assays here: The exact form of at least one protein or probe is not confirmed. For some assays here: A negative result means that nothing was seen under these conditions.

The chains behind the UniProt entries cited, without tags or fusion partners. Residues count along the entry.
UniProt P12969, 38-74: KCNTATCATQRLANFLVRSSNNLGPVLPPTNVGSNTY
UniProt P10092, 82-118: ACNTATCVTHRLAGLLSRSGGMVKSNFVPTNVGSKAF
UniProt P10997, 34-70: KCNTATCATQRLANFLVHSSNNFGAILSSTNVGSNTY
UniProt P01258, 85-116: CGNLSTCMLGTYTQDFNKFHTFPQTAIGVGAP

How the values were obtained:
[1] = molecular target: T1, alpha-CGRP (L) (Homo sapiens) (UniProt P06881); assay: activity in cells; details: L-RNA, synthetic protein, protein details: synthetic peptide, Bachem, mirror-image nucleic acid; for functional effect of the aptamer: dose not given here
T1 sequence (looked up, limits assumed): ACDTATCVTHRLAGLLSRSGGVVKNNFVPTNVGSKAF

[2] = molecular target: T2, L-CGRP (natural configuration, species not stated) (UniProt P01256); assay: inhibition of the protein; details: L-RNA, 2'-F pyrimidines, GTPgammaS assay, inhibits ligand binding to CRLR/RAMP1, synthetic protein, protein details: synthetic peptide, mirror-image nucleic acid, dose not given here
T2 sequence (looked up, limits assumed): T1 sequence (looked up, limits assumed) with A1S, D3N, N25D, K35E

[3] = molecular target: T3, Adrenomedullin (Homo sapiens) (UniProt P35318); assay: activity in cells; details: L-RNA; only slight inhibition; no clear cAMP reduction at 100x excess, IC50 not determinable; purified recombinant protein; mirror-image nucleic acid; variant of NOX-504 (STAR-R02-15xx-F12) spiegelmer; dose not given here
T3 sequence (looked up, limits assumed): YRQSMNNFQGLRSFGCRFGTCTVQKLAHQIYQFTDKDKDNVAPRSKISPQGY

[4] = molecular target: T4, Adrenomedullin (Rattus norvegicus) (UniProt P43145); assay: activity in cells; details: L-RNA; only slight inhibition; no clear cAMP reduction at 100x excess, IC50 not determinable; purified recombinant protein; mirror-image nucleic acid; variant of NOX-504 (STAR-R02-15xx-F12) spiegelmer; dose not given here
T4 sequence (looked up, limits assumed): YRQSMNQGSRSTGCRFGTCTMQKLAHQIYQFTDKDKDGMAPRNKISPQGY

[5] = molecular target: Amylin (Rattus norvegicus) (UniProt P12969); assay: activity in cells; details: L-RNA, synthetic protein, protein details: synthetic peptide, Bachem, mirror-image nucleic acid; for IC50: MCF-7, 3 nM rat amylin; for Kd: MCF-7 cAMP
[6] = molecular target: T5, beta-CGRP (L) (Homo sapiens) (UniProt P10092); assay: activity in cells; details: L-RNA; SK-N-MC cAMP, 37 C; synthetic protein; protein details: synthetic peptide; mirror-image nucleic acid; variant of NOX-504 (STAR-R02-15xx-F12) spiegelmer
T5 sequence (looked up, limits assumed): T1 sequence (looked up, limits assumed) with D3N, V22M, N25S

[7] = molecular target: T6, alpha-CGRP (L) (Rattus norvegicus) (UniProt P01256); assay: activity in cells; details: L-RNA, synthetic protein, protein details: synthetic peptide, Bachem, mirror-image nucleic acid
T6 sequence (looked up, limits assumed): T1 sequence (looked up, limits assumed) with A1S, D3N, N25D, K35E

[8] = molecular target: Amylin (Homo sapiens) (UniProt P10997); assay: activity in cells; details: L-RNA, synthetic protein, protein details: synthetic peptide, Bachem, mirror-image nucleic acid; for IC50: MCF-7, 30 nM human amylin; for Kd: MCF-7 cAMP
[9] = molecular target: T7, Calcitonin (Rattus norvegicus) (UniProt P01257); assay: competition with a labelled probe; details: L-RNA; no cross-reactivity in alpha-CGRP competition cAMP assay; purified recombinant protein; mirror-image nucleic acid; variant of NOX-504 (STAR-R02-15xx-F12) spiegelmer
T7 sequence (looked up, limits assumed): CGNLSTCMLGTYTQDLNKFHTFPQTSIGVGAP

[10] = molecular target: T8, Calcitonin (Homo sapiens) (UniProt P01258); assay: competition with a labelled probe; details: L-RNA; no cross-reactivity in alpha-CGRP competition cAMP assay; purified recombinant protein; mirror-image nucleic acid; variant of NOX-504 (STAR-R02-15xx-F12) spiegelmer
T8 sequence (looked up, limits assumed): T7 sequence (looked up, limits assumed) with L16F, S26A

[11] = molecular target: T6, alpha-CGRP (L) (Rattus norvegicus); assay: ITC; details: L-RNA; activity 47%; synthetic protein; protein details: synthetic peptide, Bachem; mirror-image nucleic acid
[12] = molecular target: T9, CGRP (biotinylated) (Rattus norvegicus) (UniProt P01256); assay: SPR; details: KD poorer than G12; synthetic protein; protein details: biotin, synthetic peptide, Jerini
T9 sequence (looked up, limits assumed): T1 sequence (looked up, limits assumed) with A1S, D3N, N25D, K35E

[13] = variant of NOX-504 (STAR-R02-15xx-F12) spiegelmer
[14] = SK-N-MC cAMP, 37 C, variant of NOX-504 (STAR-R02-15xx-F12) spiegelmer
[15] = inhibits less than L097, variant of NOX-504-014 spiegelmer
[16] = variant of NOX-504-014 spiegelmer
[17] = SK-N-MC cAMP, variant of NOX-504-014 spiegelmer
[18] = SK-N-MC cAMP, variant of L097 (NOX-504-097) spiegelmer

## CGCAGCCUUCACUGCAGUGACGCACGUAUGAUAGUUUCCAUUUUGGACUCCUGCG [732_045 spiegelmer]
[1]; 2'-F pyrimidines, SK-N-MC cAMP, human CGRP, variant of 732_045
  IC50: 22000 nM
[2]; variant of 732_045
  functional effect of the aptamer: active

## CGCUCAGCCUUCACUGCAGUGACGCACGUAUGAUAGUUUCCAUUUUGGACUCCUGGGCG [732_096 spiegelmer]
[1]; 2'-F pyrimidines, SK-N-MC cAMP, human CGRP, variant of 732_096
  IC50: 60000 nM
[2]; variant of 732_096
  functional effect of the aptamer: active

## GGACUGAUGGCGCGGUCCUAUUACGCCGAAAGGGAGAGGGGA [NOX-504-014 spiegelmer]
[3]
  functional effect of the aptamer: less active
[4]
  functional effect of the aptamer: less active
[5]; [13]
  IC50: 19 nM
[5]; calculated from IC50 (19 nM), variant of NOX-504 (STAR-R02-15xx-F12) spiegelmer
  Kd: 17.5 nM
[6]
  IC50: 1500 nM
  Ki: 0.75 nM
[7]; [14]
  IC50: 2800 nM
  Ki: 1400 nM
[1]; [14]
  IC50: 25000 nM
  Ki: 12500 nM
[8]; [13]
  IC50: 15 nM
[8]; calculated from IC50 (15 nM), variant of NOX-504 (STAR-R02-15xx-F12) spiegelmer
  Kd: < 1 nM
[9]
  binding result: no binding
[10]
  binding result: no binding

## GGACUGAUGGCGCGGUCCUAUUACGCCGAAAGGGAGAGGGGAGACAGG [NOX-504 (STAR-R02-15xx-F12) spiegelmer]
[7]; SK-N-MC cAMP
  IC50: 7000 nM
[7]; derived from cAMP IC50 ca. 7
  Kd: 3500 nM
[11]
  Kd: 44000 nM

## GGACUGAUGGCGCGGUCCUAUUACGCCGAAAGGGAGAGGGGGA [L103 spiegelmer]
[1]; [15]
  functional effect of the aptamer: less active

## GGACUGAUGGCGCGGUCCUAUUACGCCGAAAGGGAGUGGGGA [L104 spiegelmer]
[1]; [15]
  functional effect of the aptamer: less active

## GGACUGAUGGCGCGGUCCUAUUACGCCGAAAGGGAGUGGGGGA [L105 spiegelmer]
[1]; [15]
  functional effect of the aptamer: less active

## GGACUGAUGGCGCGGUCCUAUUACGCCGAGAAGGGAGAGGGGA [L102 spiegelmer]
[1]; [15]
  functional effect of the aptamer: less active

## GGACUGAUGGCGCGGUCCUAUUACGCCGAGAAGGGAGAGGGGGA [L107 spiegelmer]
[1]; two insertions adequate for improved binding, variant of NOX-504-014 spiegelmer
  functional effect of the aptamer: active

## GGACUGAUGGCGCGGUCCUAUUACGCCGAGAAGGGAGUGGGGA [L106 spiegelmer]
[1]; [15]
  functional effect of the aptamer: less active

## GGACUGAUGGCGCGGUCCUAUUACGCCGAGAAGGGAGUGGGGGA [L097 (NOX-504-097) spiegelmer]
[5]; [16]
  IC50: 10 nM
[5]; calculated from IC50 (10 nM), variant of NOX-504-014 spiegelmer
  Kd: 8.5 nM
[7]; [17]
  IC50: 1500 nM
[1]; [17]
  IC50: 6000 nM
[8]; [16]
  IC50: 21 nM
[8]; calculated from IC50 (21 nM), variant of NOX-504-014 spiegelmer
  Kd: 6 nM

## GGACUGAUGGCGCGGUCCUAUUACGCCGAGAAGGGUGUGGGGGA [L109 spiegelmer]
[1]; [18]
  IC50: 9000 nM

## GGACUGAUGGCGCGGUCCUAUUACGCCGAGUAGGGAGUGGGGGA [L108 spiegelmer]
[1]; [18]
  IC50: 5500 nM

## GGACUGAUGGCGCGGUCCUAUUACGCCGAUAGGGUGAGGGGA [NOX-504-089 spiegelmer]
[5]; [16]
  IC50: 5 nM
[5]; calculated from IC50 (5 nM), variant of NOX-504-014 spiegelmer
  Kd: 3.5 nM
[7]; no loss of binding quality versus NOX-504-014 (FIG. 62), variant of NOX-504-014 spiegelmer, dose not given here
  functional effect of the aptamer: active
[8]; [16]
  IC50: 16 nM
[8]; calculated from IC50 (16 nM), variant of NOX-504-014 spiegelmer
  Kd: 1 nM

## GGACUGAUGGCGCGGUCCUAUUACGCCGAUAGGGUGUGGGGA [NOX-504-096 spiegelmer]
[7]; SK-N-MC cAMP, about 5-fold poorer, variant of NOX-504-089 spiegelmer
  IC50: 10000 nM

## GGAGCUCAGCCUUCACUGCCAUUGAGGAUAUGCCGCGGGUCCGCAUGGAGUGGGUGUUGGGCACCACGGUCGGAUCCAG [H03a]
[12]
  binding result: binds more weakly

## GGAGCUCAGCCUUCACUGCGGGUGGGAGGGUGGAUGGUGAAGAACGAGCGCUGACCGCGGCACCACGGUCGGAUCCAG [H08a]
[12]
  binding result: binds more weakly

## GGAGCUCAGCCUUCACUGCGGGUGGGAGGGUGGAUGGUGGAGAACGAGCACUGACCUCGGCACCACGGUCGGAUCCAG [H08b]
[12]
  binding result: binds more weakly
